Measured values: patent publication US20210239689A1, “COMPETITIVE SMALL MOLECULE DETECTION ASSAYS USING ARRAYED IMAGING REFLECTOMETRY” (ADARZA BIOSYSTEMS, INC., priority 2015, published 2021)

Key:
Format in all cases: binding
[1] = tested on: Antibodies against benzo[a]pyrene (GTX20768); assay: AIR toxicant array, competitive immunoassay (three-plex), benzo[a]pyrene; conditions: three-plex AIR assay, competitive inhibition, 0.5% BSA in PBS-ET, antibody 6.7 nanomolar
[2] = tested on: anti-bisphenol A; assay: Competitive ELISA of anti bisphenol A (plate adsorbed with KLH-bisphenol A, free bisphenol A as competitor)
[3] = tested on: Anti-bisphenol A (AS132735); assay: AIR toxicant array, competitive immunoassay (three-plex), bisphenol A; conditions: three-plex AIR assay, competitive inhibition, 0.5% BSA in PBS-ET, antibody 6.7 nanomolar
[4] = tested on: Antibodies against acrolein (GTX15138); assay: AIR toxicant array, competitive immunoassay (three-plex), acrolein
[5] = three-plex AIR assay, competitive inhibition, 0.5% BSA in PBS-ET, antibody 6.7 nanomolar

Question: `c1ccc2c(c1)cc1ccc3cccc4ccc2c1c34` [Benzo[a]pyrene, benzo[a]pyrene] was tested. Which LLOD [1] did it give?
Answer: 16 nM

Question: What about the LLOQ [1] of the same compound?
Answer: 16 nM

Question: Which results are given for `CC(C)(c1ccc(O)cc1)c1ccc(O)cc1` [Bisphenol A, bisphenol A]?
Answer: lower limit of detection [2]: 0.64 ng/mL and 2.8 nM; LLOD [3]: 80 nM; LLOQ [3]: 80 nM

Question: Which “AIR array response to analyte doped in pooled normal human serum (PNHS)” value ([4]; competitive inhibition mode, 10 and 50 micromolar, FIG. 8) does the source give for `C=CC=O` [Acrolein, acrolein] here?
Answer: concentration-dependent responses

Question: What about the “response in competitive inhibition format versus competitive dissociation format” value ([4]; equivalent concentrations, FIG. 6) of the same compound?
Answer: substantially greater response

Question: And the LLOD [4, 5]?
Answer: 16 nM

Question: And the LLOQ [4, 5]?
Answer: 16 nM

Values joined by “and” are separate entries in the source; they are usually repeats but may differ in a detail not shown here. Equal values may be shown once.
